Drawing on article doi:10.1101/2021.01.25.428185 (bioRxiv, 2021), this text covers binding for one substance.

Protein sequences, listed by entry. Tags and fused reporters are not part of them. Residues count along the entry.
UniProt G3XA57, residues 389-512: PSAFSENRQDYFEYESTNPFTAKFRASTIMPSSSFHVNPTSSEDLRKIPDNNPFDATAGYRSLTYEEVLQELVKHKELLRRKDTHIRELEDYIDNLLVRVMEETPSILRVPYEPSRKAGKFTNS

These are yes or no findings as the source states them, for the method shown. Some results given as binding are weak or reduced against the parent protein; the word gives no strength.

The test deals with C-terminal domain of mouse Rab11-FIP2 (Rab11-FIP2-C) (mouse) (UniProt G3XA57). As to the kind of experiment: two-hybrid.

As for “C-terminal domain of mouse Rab11-FIP2 (Rab11-FIP2-C) (from UniProt G3XA57 389-512) (domain or fragment)”, the binding result is given as “binds”.
